This test has as its target T1, phosphoglycerate kinase 1 (human (endogenous in HK-2)) (UniProt P00558).
T1 sequence: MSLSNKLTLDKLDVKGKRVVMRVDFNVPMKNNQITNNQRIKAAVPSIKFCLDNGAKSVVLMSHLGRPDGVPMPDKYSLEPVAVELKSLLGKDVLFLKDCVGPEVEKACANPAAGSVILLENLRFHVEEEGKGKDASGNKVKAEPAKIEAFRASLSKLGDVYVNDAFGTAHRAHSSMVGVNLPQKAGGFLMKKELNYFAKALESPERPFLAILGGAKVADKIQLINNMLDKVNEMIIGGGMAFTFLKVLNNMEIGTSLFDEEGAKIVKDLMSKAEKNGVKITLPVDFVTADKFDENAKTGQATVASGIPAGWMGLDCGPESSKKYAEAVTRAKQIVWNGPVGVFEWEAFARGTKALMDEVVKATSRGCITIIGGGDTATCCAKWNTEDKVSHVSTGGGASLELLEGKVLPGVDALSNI
Briefly: co-IP; total protein of HK-2 cells; primary antibody or IgG overnight at 4°C, Protein A/G agarose beads 2 h at 4°C; western blotting; forward (ACSF2) and reverse (PGK1) precipitation.

Results on one molecule are retold here after PMC12269058.

No constants are given. Whether binding was seen depends on the method and setting. In cells and extracts the contact can be indirect. Some entries that bind do so weakly or less than the wild type.

B1: Acyl-CoA Synthetase family member 2 (protein, UniProt Q96CM8 42-615)
chain: LSSREVDRMVSTPIGGLSYVQGCTKKHLNSKTVGQCLETTAQRVPEREALVVLHEDVRLTFAQLKEEVDKAASGLLSIGLCKGDRLGMWGPNSYAWVLMQLATAQAGIILVSVNPAYQAMELEYVLKKVGCKALVFPKQFKTQQYYNVLKQICPEVENAQPGALKSQRLPDLTTVISVDAPLPGTLLLDEVVAAGSTRQHLDQLQYNQQFLSCHDPINIQFTSGTTGSPKGATLSHYNIVNNSNILGERLKLHEKTPEQLRMILPNPLYHCLGSVAGTMMCLMYGATLILASPIFNGKKALEAISRERGTFLYGTPTMFVDILNQPDFSSYDISTMCGGVIAGSPAPPELIRAIINKINMKDLVVAYGTTENSPVTFAHFPEDTVEQKAESVGRIMPHTEARIMNMEAGTLAKLNTPGELCIRGYCVMLGYWGEPQKTEEAVDQDKWYWTGDVATMNEQGFCKIVGRSKDMIIRGGENIYPAELEDFFHTHPKVQEVQVVGVKDDRMGEEICACIRLKDGEETTVEEIKAFCKGKISHFKIPKYIVFVTNYPLTISGKIQKFKLREQMERHLNL
For the molecule B1, the binding result is “binds”.
